The whole screen tested about 320,000 compounds, of which about 620 (0.19%) were called active. Inconclusive means that the source gave no clear call. Such entries were picked first, then a sample of the others. Cut-off read from the data, not from the text of the source: active = activation above about 80%; inconclusive = between about 30% and that limit; inactive = weaker than that.
These compounds were tested against Transient receptor potential cation channel subfamily V member 1 (Homo sapiens) (UniProt Q8NER1) (assay: HTS Assay for Compounds that Act as Agonists of the Vanilloid Receptor 1). Conditions: TRPV1-expressing cells, Fluo-8 calcium influx, agonist mode; at 8.33 µM, active compounds read high.
Procedure, shortened: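 TRPV1-expressing cells were cultured overnight at 35.5C and loaded with Fluo-8 calcium dye for 40 to 90 min at room temperature. After a 10 s baseline, compound was added and calcium influx was read kinetically for 3 min (ex 480/em 520 nm).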
Note: 0% is about no effect.

Protein sequences, listed by entry. Tags and fused reporters are not part of them.
UniProt Q8NER1, whole entry, looked up: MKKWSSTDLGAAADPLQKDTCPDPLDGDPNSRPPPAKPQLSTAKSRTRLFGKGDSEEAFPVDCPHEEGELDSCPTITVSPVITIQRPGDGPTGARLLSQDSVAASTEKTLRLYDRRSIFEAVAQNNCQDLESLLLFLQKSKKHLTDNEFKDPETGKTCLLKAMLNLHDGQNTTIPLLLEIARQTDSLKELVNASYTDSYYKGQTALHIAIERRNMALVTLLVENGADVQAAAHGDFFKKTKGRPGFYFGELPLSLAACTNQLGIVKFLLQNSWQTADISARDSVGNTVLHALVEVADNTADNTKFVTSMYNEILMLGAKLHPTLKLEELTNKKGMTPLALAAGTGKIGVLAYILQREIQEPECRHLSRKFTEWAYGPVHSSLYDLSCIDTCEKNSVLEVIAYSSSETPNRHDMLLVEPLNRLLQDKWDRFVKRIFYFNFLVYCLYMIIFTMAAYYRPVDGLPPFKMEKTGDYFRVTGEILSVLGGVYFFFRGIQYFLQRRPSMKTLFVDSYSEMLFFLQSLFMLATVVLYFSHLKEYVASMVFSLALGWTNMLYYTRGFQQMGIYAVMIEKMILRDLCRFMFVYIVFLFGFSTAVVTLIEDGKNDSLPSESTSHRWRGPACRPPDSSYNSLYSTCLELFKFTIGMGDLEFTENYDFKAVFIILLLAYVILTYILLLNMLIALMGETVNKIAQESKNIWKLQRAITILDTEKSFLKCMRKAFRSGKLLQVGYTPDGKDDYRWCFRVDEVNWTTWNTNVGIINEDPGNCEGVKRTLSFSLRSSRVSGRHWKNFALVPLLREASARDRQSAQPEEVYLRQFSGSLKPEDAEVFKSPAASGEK

Row | SMILES | activation
1 | Cc1ccccc1-c1nc(CS(=O)(=O)CC(=O)NC2CCCCC2C)c(C)o1 (stereo not given) | inconclusive: 33.2%
2 | CC(NC(=O)C1CC=CCC1C(=O)O)C1CC2CCC1C2 (stereo not given) | inactive: -4.28%
3 | CCN(CC)CCOC(=O)c1ccc(N/C=C(/C#N)c2nc(-c3ccc(OC)cc3)cs2)cc1 | inactive: 1.61%
4 | CCc1ccc(S(=O)(=O)Nc2cc(SCC(=O)O)c(O)c3ccccc23)cc1 | inactive: -0.883%
5 | S=C(NCc1ccccc1)Nc1ccc2cn[nH]c2c1 | inconclusive: 78.6%
6 | CCOC(=O)N1CCN(CC(=O)Nc2c(C(=O)OC)[nH]c3ccc(Cl)cc23)CC1 | inconclusive: 63.1%
7 | COc1cc(SC)ccc1C(=O)NCCc1c[nH]c2ccccc12 | inconclusive: 35.8%
8 | Brc1cc2c(cc1Br)OCCOCCOCCOCCO2 | inactive: -1.07%
9 | CCOC(=O)c1c(-c2ccccc2)oc2ccc(OCC(=O)NN)cc12 | inconclusive: 35.1%
10 | CN(C)c1ccc(S(=O)(=O)NCC(=O)NCCC2=CCCCC2)cc1[N+](=O)[O-] | inconclusive: 41.9%
11 | CC(C)c1ccc(/C=C2\SC(N3CCCC3)=NC2=O)cc1 | inconclusive: 39.2%
12 | CC1(C)NC(=O)N(CCCCOc2ccc(Cl)cc2)C1=O | inconclusive: 59.1%
13 | Nc1ccc(C(=O)N/N=C/c2cccc(Oc3ccccc3)c2)cc1 | inconclusive: 41.3%
14 | CC1CC(C)CN(C(=O)c2cccc(S(=O)(=O)N3c4ccccc4CC3C)c2)C1 (stereo not given) | inconclusive: 48.2%
15 | CCCCc1ccc(S(=O)(=O)NCCc2ccncc2)cc1 | inconclusive: 59%
16 | O=C(Cn1c(NCCO)nc2ccccc21)c1ccc(Cl)cc1 | inconclusive: 44.4%
17 | Cc1cc(S(=O)(=O)N(Cc2ccc(C(C)C)cc2)CC2CCCO2)ccc1-n1cnnn1 (stereo not given) | inconclusive: 66.2%
18 | CC(=O)NCCC(=O)N1CCCC(C(=O)c2ccc3c4c(cccc24)CC3)C1 (stereo not given) | inconclusive: 68.4%
19 | Cc1ccc(S(=O)(=O)NC(CC(C)C)C(=O)N2CCN(C/C=C/c3ccccc3)CC2)cc1 (stereo not given) | inconclusive: 37.5%
20 | CCCCNC(=O)Nc1nc2ccccc2s1 | inconclusive: 52.9%
21 | O=C(N/N=C/C1CC=CCC1)c1ccc(O)cc1O (stereo not given) | inconclusive: 71.9%
22 | O=C(Nc1cccnc1)c1ccc(Cl)c(S(=O)(=O)N2CCc3ccccc32)c1 | inconclusive: 64.5%
23 | COC(=O)c1c(-c2ccc(OC)cc2)sc2cc3c(cc12)OCO3 | inactive: 8.89%
24 | O=P(c1ccccc1)(c1ccccc1)c1nc(-c2ccccc2)oc1N1CCOCC1 | inconclusive: 69.5%
25 | CC(C)CCn1c(=O)c2c(nc3n2CCCN3Cc2ccccc2)n(C)c1=O | inconclusive: 55.1%
26 | O=C(CSc1nc2ccccc2[nH]1)Nc1c(F)c(F)c(F)c(F)c1F | inconclusive: 31.8%
27 | COc1ccc(CNC(=O)N2CCc3ccccc3C2)cc1 | inconclusive: 32.6%
28 | O=C(COC(=O)c1cn(-c2ccccc2)nc1-c1cccnc1)NC1CC1 | inactive: 6.93%

2 of the compounds above, as tab-separated lines:
Row	SMILES	activation
20	CCCCNC(=O)Nc1nc2ccccc2s1	inconclusive: 52.9%
21	O=C(N/N=C/C1CC=CCC1)c1ccc(O)cc1O (stereo not given)	inconclusive: 71.9%

The list continues.

Row | SMILES | activation
29 | CCN(CC)c1ccc(/C=N/n2c(-c3ccccc3Br)n[nH]c2=S)cc1 | inactive: 14.2%
30 | CCn1nccc1C(=O)Nc1ccc(C)c(C)c1 | inconclusive: 35.8%
31 | Cc1c(C(=O)N2CCN(C(c3ccccc3)c3ccccc3)CC2)oc2ccccc12 | inconclusive: 38.6%
32 | O=C(Nc1ccc(N2CCCCC2)cc1)c1ccc2ccccc2n1 | inconclusive: 30.6%
33 | CN(CC(=O)Nc1ccccc1Br)C(=O)c1cc(Cl)nc2ccccc12 | inactive: 11.9%
34 | O=C(Nc1nc2c(F)cccc2s1)c1ccc([N+](=O)[O-])o1 | inconclusive: 35.5%
35 | C#CCOCCOCCOCCNc1nc(N2CCN(C(=O)CCCCCCCCCCNC(=O)[C@H]([C@@H](C)CC)n3cc(CCCCCN)nn3)CC2)nc(N2CCN(C(=O)CCCCCCCCCCNC(=O)[C@@H]([C@H](C)O)n3cc(C)nn3)CC2)n1 | inactive: -2.47%
36 | Cc1ccccc1NC(=O)c1cccc(Cn2cc(Br)c([N+](=O)[O-])n2)c1 | inactive: 26.3%
37 | CCOC(=O)Cc1ccc(NC(=O)c2ccc([N+](=O)[O-])cc2)cc1 | inconclusive: 52.1%
38 | Fc1ccc2[nH]c3c(N4CCSCC4)ncnc3c2c1 | inconclusive: 33%
39 | O=C(NCCC1=CCCCC1)c1cccc2c1C(=O)N(C1CCCCC1)C2 | inconclusive: 68.1%
40 | CCOC(=O)c1sc(NC(=O)c2cc3ccccc3o2)nc1C | inconclusive: 33.4%
41 | O=C(Nc1cccc([N+](=O)[O-])c1)c1cc2ccccc2cc1O | inactive: 3.5%
42 | NS(=O)(=O)c1ccc(NC(=O)/C=C/c2ccc3c(c2)OCO3)cc1 | inconclusive: 55.5%
43 | CCCCn1nnnc1NCc1cccs1 | inconclusive: 52.6%
44 | Cc1ccc(S(=O)(=O)N2CCOCC2)cc1C(=O)OC(C)C(=O)c1ccccc1 (stereo not given) | inconclusive: 40.6%
45 | CC(C)c1nc2sc3c(SCC(=O)NCc4ccco4)ncnc3c2c2c1CCC2 | inactive: -5.57%
46 | O=C1C=C(Nc2ccc(F)cc2)c2ccccc2C1=O | inactive: -2.29%
47 | Cc1cc(/C=C2\C(=N)N3N=CSC3=NC2=O)c(C)n1Cc1ccccc1 | inactive: 20.1%
48 | Cc1cc(C)nc(SCc2ccc(C(=O)N/N=C/c3cccnc3)cc2)n1 | inconclusive: 44%
49 | CN(C)S(=O)(=O)c1ccc(C(=O)Nc2nnc(-c3ccco3)o2)cc1 | inactive: 5.38%
50 | O=c1cc(-c2ccccc2)nc2nc(-c3ccccc3)[nH]n12 | inactive: -3.05%
51 | COc1ccc(C)cc1N(C(=O)c1snc(C(N)=O)c1N)C(C(=O)NC1CCCC1)c1ccc(F)cc1 (stereo not given) | active: 99.2%
52 | CNC(=O)/C(C#N)=C/c1c(N(Cc2ccccc2)Cc2ccccc2)nc2c(C)cccn2c1=O | inconclusive: 36.4%
53 | CCOc1ccc(C(=O)NC(C(=O)NCC2CCCO2)C(C)C)cc1 (stereo not given) | inactive: -0.0397%
54 | CN(Cc1ccccc1)C(=S)NC(=O)c1cccs1 | inactive: 12.5%
55 | CCOc1ccc(/C=C2/Sc3ccc(C(=O)N4CCOCC4)cc3N(C)C2=O)cc1OC | inactive: -1.44%

A draw from above in order of formula weight, low to high:
Row | SMILES | activation
30 | CCn1nccc1C(=O)Nc1ccc(C)c(C)c1 | inconclusive: 35.8%
38 | Fc1ccc2[nH]c3c(N4CCSCC4)ncnc3c2c1 | inconclusive: 33%
31 | Cc1c(C(=O)N2CCN(C(c3ccccc3)c3ccccc3)CC2)oc2ccccc12 | inconclusive: 38.6%

— PubChem BioAssay AID540275 (National Center for Advancing Translational Sciences (NCATS), 2011)
